Test results: patent US20250263437A1 (Sichuan Gooddoctor Panxi Pharmaceutical Co., Ltd., priority 2021, published 2025)
Where no end group is shown, it is not given here.

Assay: general procedure: Fmoc solid-phase peptide synthesis; 2-chlorotrityl chloride resin (SD=0.75 mmol/g); DIC/HOBt
Conditions: for step yield: purification step; for final purity (method not given): whole synthesis, scale of the general procedure 13.48 g of resin in six synthesis tubes, Acetate

Substance | step yield | final purity (method not given)
SMQASLEALAKGKAE | 14.1% | 99.69%
SMQASLEAEAKGKAQE | 5.2% | 98.43%
SMQASLEAESKGKAE | 8.2% | 100%
SLQASLEAEAKGKAE |  | 100%
SMQASL | 62.9% | 100%
SMQASLEADAKGKAE | 21.1% | 99.74%
SMQASLEAEAKGHAE | 4.1% | 99.74%
SMQASLEAEAAGKAE | 17.5% | 100%
Gln-Ala-Ser-Leu (QASL; printed: Gln-Ala-Ser-Leu) | 58.4% | 98.41%
TASTLEAEAKGKAE | 18.9% | 99.74%
SMQASLEAEAKGKAQD | 6.7% | 100%
RKDVYEAEAKGKAE | 39.4% | 99.71%
SMQATLEAEAKGKAE | 19.7% | 100%
SMQASLEAEAKAKAE | 14.0% | 97.54%
QASLEAEAKGKAE | 14.3% | 97.45%
SIQASLEAEAKGKAE | 17.2% | 100%
EAEAAGKAE | 41.1% | 98.36%
SMAASLEAEAKGKAE |  | 100%
SMQASLEAEAKGKAEL | 5.6% | 100%
SMQASLEAEAKGKAN | 4.4% | 98.37%
Glu-Ala-Glu-Ala (EAEA; printed: Glu-Ala-Glu-Ala) | 36.6% | 100%
SMQASVEAEAKGKAE | 11.7% | 100%
SAQASLEAEAKGKAE |  | 100%
